Source: article PMC8630191
No constants are given. Whether binding was seen depends on the method and setting. Binding seen in cells or lysates may run through a third protein. Here binding means that the protein was enriched with, or labelled near, the bait; the list need not be complete. Sequences can lack the tags named with a protein.

Key:
[1] = target: T1, 3xFLAG-tagged PP4c ΔL mutant (Leu 307 deleted) (human) (UniProt P60510); assay: affinity purification with mass spectrometry; 3xFLAG-tagged catalytic subunit (WT or ΔL) transfected in FreeStyle 293F cells; FLAG M2 affinity gel, 3 h at 4 °C; lysis and wash buffer 50 mM Tris pH 7.5, 500 mM NaCl, 0.5% Triton X-100; eluted with 3XFLAG peptide; label-free quantitative LC-MS/MS on unique peptides, three replicates
T1 sequence: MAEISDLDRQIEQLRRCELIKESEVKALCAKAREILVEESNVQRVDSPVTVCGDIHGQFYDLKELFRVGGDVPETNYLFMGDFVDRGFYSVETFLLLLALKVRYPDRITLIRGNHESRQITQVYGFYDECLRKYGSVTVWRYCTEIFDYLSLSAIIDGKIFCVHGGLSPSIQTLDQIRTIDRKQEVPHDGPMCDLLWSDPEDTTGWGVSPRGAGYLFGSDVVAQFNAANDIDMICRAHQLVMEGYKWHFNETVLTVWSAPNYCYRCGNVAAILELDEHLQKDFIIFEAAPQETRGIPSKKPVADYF

[2] = target: T2, 3xFLAG-tagged PP4c, wild type (human) (UniProt P60510); assay: as above
T2 sequence: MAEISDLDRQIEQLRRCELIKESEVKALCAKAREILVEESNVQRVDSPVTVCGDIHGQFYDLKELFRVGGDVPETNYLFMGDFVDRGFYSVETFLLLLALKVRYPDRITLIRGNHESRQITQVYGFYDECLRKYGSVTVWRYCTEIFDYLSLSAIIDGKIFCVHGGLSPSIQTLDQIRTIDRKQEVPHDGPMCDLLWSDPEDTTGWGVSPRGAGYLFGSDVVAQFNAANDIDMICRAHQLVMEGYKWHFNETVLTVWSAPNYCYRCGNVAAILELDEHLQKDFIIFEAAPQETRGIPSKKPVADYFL

binding [1]: binds
binding [2]: binds
B1: PP4R1, PP4 regulatory subunit (protein, UniProt Q8TF05 1-950)
chain: MADLSLLQEDLQEDADGFGVDDYSSESDVIIIPSALDFVSQDEMLTPLGRLDKYAASENIFNRQMVARSLLDTLREVCDDERDCIAVLERISRLADDSEPTVRAELMEQVPHIALFCQENRPSIPYAFSKFLLPIVVRYLADQNNQVRKTSQAALLALLEQELIERFDVETKVCPVLIELTAPDSNDDVKTEAVAIMCKMAPMVGKDITERLILPRFCEMCCDCRMFHVRKVCAANFGDICSVVGQQATEEMLLPRFFQLCSDNVWGVRKACAECFMAVSCATCQEIRRTKLSALFINLISDPSRWVRQAAFQSLGPFISTFANPSSSGQYFKEESKSSEEMSVENKNRTRDQEAPEDVQVRPEDTPSDLSVSNSSVILENTMEDHAAEASGKPLGEISVPLDSSLLCTLSSESHQEAASNENDKKPGNYKSMLRPEVGTTSQDSALLDQELYNSFHFWRTPLPEIDLDIELEQNSGGKPSPEGPEEESEGPVPSSPNITMATRKELEEMIENLEPHIDDPDVKAQVEVLSAALRASSLDAHEETISIEKRSDLQDELDINELPNCKINQEDSVPLISDAVENMDSTLHYIHSDSDLSNNSSFSPDEERRTKVQDVVPQALLDQYLSMTDPSRAQTVDTEIAKHCAYSLPGVALTLGRQNWHCLRETYETLASDMQWKVRRTLAFSIHELAVILGDQLTAADLVPIFNGFLKDLDEVRIGVLKHLHDFLKLLHIDKRREYLYQLQEFLVTDNSRNWRFRAELAEQLILLLELYSPRDVYDYLRPIALNLCADKVSSVRWISYKLVSEMVKKLHAATPPTFGVDLINELVENFGRCPKWSGRQAFVFVCQTVIEDDCLPMDQFAVHLMPHLLTLANDRVPNVRVLLAKTLRQTLLEKDYFLASASCHQEAVEQTIMALQMDRDSDVKYFASIHPASTKISEDAMSTASSTY
